Test results from PMC10163288.
The other results are listed elsewhere or left out.

B1: il10ra_site1_sap_16_mot_HHH_b2_04274_000000146_0001_1_19_H_._HHH_b2_07966_0001_0000200054_0000002_0_0001 (protein)
chain: SSSSTEHEEAFRLLERVVELHAEGDEEELEELLEEAEKIAQEANNDVILWQLEYLKRLLESSSSS
B2: il10ra_site1_normal_mot_HHH_b1_03333_000000091_0001_1_17_H_._HHH_b1_08629_af2_0001_0000300012_0000001_0 (protein)
chain: SSSSNELYEEVKKLIEEVVELIREGDEERAEELLEQIEELAEKFNNVAVRAALEALRRDLKSSSS
B3: il10ra_site1_normal_mot_HHH_b1_03900_000000129_0001_1_16_H_._HHH_b2_00742_af2_0001_0000100003_0000002_0 (protein)
chain: SSSSSEEERRLYELIKRAARLLIRGNPEEAEKVTEELKRLAEELGNEAAEKAVKILEEAASSSSS
B4: il10ra_site1_normal_mot_HHH_b2_07938_000000207_0001_42_56_H_._HHH_b1_00772_af2_0001_0000100001_0000002_0 (protein)
chain: SSSSSEELEKFVEELVEKFGLSEQQEEYLRAAARALLERGVSEEEIKHMLEIQAELLALGSSSSS
B5: il10ra_site1_normal_mot_HHH_b2_06954_000000276_0001_1_20_H_._HHH_b2_04149_0001_0000200004_0000001_0_af2pred_0001 (protein)
chain: SSSSSEEEEIKEALLLAARVFAHLTDPELAQELARLALELARTGDPELAEELFELARELGSSSSS
B6: il10ra_site1_sap_8_mot_05ca327611f5605f0dd8494b449afcbf_0001_1_000000248_0001_35_51_H_._HHH_b2_07461_af2_0001_0000100001_0000001_0_0001 (protein)
chain: SSSSQESYRLAREFIEEIIRLQEEGDREEAERLAEELLELLRELGDQNTTYAVEVLLRAVRSSSS
B7: il10ra_site1_sap_19_mot_HHH_b1_03460_000000139_0001_1_20_H_._HHH_b2_01396_0001_0000100015_0000001_0_0001 (protein)
chain: SSSSDEERQRAIRLAQHAIRYALKRNDPELLRELWELIHRLAREGDPELAEELAELAERILSSSS
B8: il10ra_site1_normal_mot_HHH_b2_00475_000000002_0001_44_57_H_._HHH_b1_01360_0002_0000100003_0000002_0_af2pred_0001 (protein)
chain: SSSSSSEELLELAEKSIELAEELGDEEKIRIAAHALFNTAKNLNDPEALRFAEEVLERVNSSSSS
B9: il10ra_site1_normal_mot_HHH_b1_05098_000000185_0001_1_18_H_._HHH_b1_08425_0001_0000400026_0000001_0 (protein)
chain: SSSSDEEKQRLLELSLEAFRLALRGNPEEARKVVEEAEELAEELNNEELLRTIRELLQALSSSSS
B10: il10ra_site1_sap_22_mot_HHH_b1_06128_000000102_0001_1_20_H_._HHH_b2_03538_af2_0001_0000200012_0000002_1_0001 (protein)
chain: SSSSDREERIKELQEEIEELIERNDREEALRLLMEALRLAYEAGDEELLRELWELLHLVRSSSSS
B11: il10ra_site1_sap_18_mot_HHH_b1_08446_000000041_0001_1_19_H_._HHH_b1_03012_0001_0000700024_0000001_0_0001 (protein)
chain: SSSSDEAYERLRKLVELIHEATSEEEEEELREELERLEREARENGDWIVVMQIEFLLEELNSSSS
B12: il10ra_site1_normal_mot_HHH_b2_03346_af2_000000019_0001_1_18_H_._HHH_b2_07961_0001_0000300037_0000001_0_af2pred_0001 (protein)
chain: SSSSDRIEEALELTLRLLERLLELGNEEAFKSLFHAARLLAERHNDEEVEEELERLEELLESSSS
B13: il10ra_site1_sap_19_mot_HHH_b2_03220_af2_000000223_0001_23_40_H_._HHH_b1_07137_af2_0001_0000600011_0000001_0_0001 (protein)
chain: SSSSDSREIYRLSREAAELAREGNPEEARELLRKALELAEELNDMILFHLVEWLLEMLEGSSSSS
B14: il10ra_site1_normal_mot_42c349ed7ecc24df8868883d370ad53f_0001_000000116_0001_19_33_H_._12f07e73ac0f89cdf9148c08efb246fb_0001_1_0001_0000300016_0000001_0_af2pred … (protein)
chain: DALAALEAAWAAGDAERATALIKELALKAGEEQDPRLEAVVRLLSNAFLANDPALLAQARAAYLE
B15: il10ra_site1_normal_mot_HHH_b1_05083_af2_000000148_0001_42_57_H_._HHH_b2_01401_af2_0001_0000100010_0000001_0_af2pred_0001 (protein)
chain: SSSSSEEVQEIIEIIREAAKANSEGDKEEAKRLLEEAEELAEELGNVLLRFIIEWLLRRISSSSS
B16: il10ra_site1_sap_22_mot_HHH_b1_07466_000000214_0001_1_19_H_._HHH_b2_06153_0001_0000200020_0000002_0_0001 (protein)
chain: SSSSDEEEELVEAALRLVEQIRKWGDPRAARFHLWSAEFVAREINNPELERLVEELEEELNSSSS
B17: il10ra_site1_normal_mot_HHH_b2_02053_af2_000000006_0001_3_19_H_._HHH_b2_05497_0001_0000200022_0000003_0 (protein)
chain: SSSSSEEREELYKLLRKALELFAKGDPEEAREVLEEALQLAEELNNRLFLFSLRHLLRALSSSSS
B18: il10ra_site1_sap_16_mot_HHH_b1_04693_000000238_0001_19_36_H_._HHH_b2_05159_0001_0000200012_0000001_0_0001 (protein)
chain: SSSSSEIEEYREEIEKLLEEGNWEEAMRLLVEAVRLALRLGDPELLRELWELIKEVAERRQSSSS
B19: il10ra_site1_sap_22_mot_HHH_b1_03314_af2_000000278_0001_42_55_H_._HHH_b2_04189_0001_0000400020_0000001_0_0001 (protein)
chain: SSSSDLKEEAEELAEEAQELAEERGDRAAVYLLRQALEALRLAGDPRAARQLYELARIVLSSSSS
B20: il10ra_site1_normal_mot_HHH_b2_05813_000000266_0001_1_19_H_._HHH_b1_07280_0001_0000100002_0000001_0_af2pred_0001 (protein)
chain: SSSSSLEEEVLELIIEAQRLLQKGNPEEAERVLEEALEIAREKGNPRLAHIIERLEEMVERSSSS
B21: il10ra_site1_normal_mot_745ba417a8ead33aea5db1974d5d2f48_0001_1_af2_000000024_0001_16_30_H_._HHH_b2_02882_0001_0000100006_0000001_0_af2pred_0001 (protein)
chain: SSSSDEEKLRLALKSLKHLLELGDEERAKLAVEILLRTAEYNGDEEVREILEEILERLENSSSSS
B22: il10ra_site1_normal_mot_HHH_b1_01827_000000263_0001_1_19_H_._HHH_b2_07433_0001_0000500029_0000001_0_af2pred_0001 (protein)
chain: SSSSSTEEVERVIKLIRRALEIEDEEERRRLLEEAVELAEEGGNLVLLISARFALEDVEQSSSSS
B23: il10ra_site1_normal_mot_HHH_b2_08265_af2_000000206_0001_22_38_H_._HHH_b2_06195_0001_0000100007_0000001_0 (protein)
chain: SSSSSDEEVEELEREIRELLEEGDPEEALRLLQRLVQLAFRLSDQEAIRIAWELAKLIASSSSSS
B24: il10ra_site1_sap_22_mot_HHH_b1_07803_af2_000000186_0001_43_57_H_._09770d796a13084421b44ad29b674de3_0001_1_0001_0000200005_0000001_0_0001 (protein)
chain: SSSSSSEELRQYHEELEELTEEGDKDRVIELLQEALRAAYQNRDEEILQLLWEIAKEVAKSSSSS
B25: il10ra_site1_normal_mot_HHH_b1_07380_000000129_0001_1_20_H_._HHH_b1_02603_0001_0000100003_0000001_0 (protein)
chain: SSSSDEAEEIYELSRKAAEALAEGNPEEARELVEQALELAEEANNFALAFALRLLLRQINSSSSS
B26: il10ra_site1_normal_mot_HHH_b1_03900_000000129_0001_1_16_H_._HHH_b1_02560_0001_0000400024_0000001_0 (protein)
chain: SSSSREEVYRLVKEIARALIRNDPELVERLLEELREVVEEYNDKAAEELLRILEEAFRATTSSSS
B27: il10ra_site1_normal_mot_HHH_b1_08697_af2_000000298_0001_1_18_H_._HHH_b1_07013_0001_0000400015_0000001_1_af2pred_0001 (protein)
chain: SSSSSERAIKLHLLLARLAFELNDRKALEAATHAARALVKRFKDPELEELLREIEELLEELSSSS
B28: il10ra_site1_sap_21_mot_HHH_b1_05357_000000034_0001_23_39_H_._HHH_b2_05349_0001_0000600054_0000001_0_0001_af2pred_0001 (protein)
chain: SSSSNREQRVAELLARALRAAAEGNPEEAERLLEEARELAEELNDEELERAIEILKRYVERSSSS
B29: il10ra_site1_normal_mot_ems_3hM_3637_000000290_0001_1_19_H_._HHH_b2_03486_0001_0000200022_0000001_0 (protein)
chain: SSSSREEAEEAYELLREALELRAEGDEEEAKRVLQEAFEVAEEGGNQAILFAIEYLLEKLNSSSS
B30: il10ra_site1_sap_13_mot_HHH_b2_04275_000000272_0001_20_36_H_._HHH_b1_05781_0001_0000400050_0000002_1_0001_af2pred_0001 (protein)
chain: SSSSSKEVKAAKLTIRALEAAANGDPEEARELLEQAKELAEELNDEELQRIIENSEEQVNSSSSS
B31: il10ra_site1_sap_4_mot_HHH_b1_06788_af2_000000238_0001_19_36_H_._HHH_b1_07633_0001_0000100010_0000001_0_0001 (protein)
chain: DEELEHLLELLEKLLPPELRRAVRFWLHILEMGVVPPERVIQALEVMARAAGDPEVERLLEEVKK
B32: il10ra_site1_sap_11_mot_HHH_b2_00943_af2_000000149_0001_1_17_H_._654b43168d24a4fb17a944576add0ed3_0001_af2_0001_0000500018_0000002_0_0001 (protein)
chain: SSSSSDEEELEELIREIEELLKNGNPKEAVRLAQRAVRLAYRLNDEEALRELWELVQEAGSSSSS
B33: il10ra_site1_normal_mot_HHH_b2_08186_000000021_0001_43_56_H_._HHH_b1_02298_af2_0002_0000300029_0000001_0 (protein)
chain: SSSSDEEVEELIQEAEELLERGNPEEALEVVRRALQLAFELGDAELLQRLWELLKRIAKLSSSSS
B34: il10ra_site1_normal_mot_HHH_b2_01986_af2_000000130_0001_1_18_H_._HHH_b2_08065_0001_0000200013_0000001_0 (protein)
chain: SSSSSDEAQRVWELIREAFELYRRGNPEEAQRLLEEAEELAEEGNNPWLESNVRRALRQLSSSSS
B35: il10ra_site1_sap_23_mot_HHH_b1_06348_000000162_0001_1_15_H_._HHH_b1_08027_0001_0000100008_0000001_0_0001 (protein)
chain: SSSSRSERVWELIREALELLANGNPEEAREVLEEAEELAREANSWILERNVELLLRDVELRSSSS
B36: il10ra_site1_normal_mot_HHH_b1_06125_000000022_0001_1_19_H_._HHH_b1_03671_af2_0001_0000200007_0000001_0 (protein)
chain: SSSSDDEALKLSLEALRLALRGNPEEAQEVAEKALELAEEEGDERLARIIEELLQTIRNQSSSSS
B37: il10ra_site1_normal_mot_HHH_b1_08440_000000140_0001_1_20_H_._HHH_b1_00906_af2_0001_0000100001_0000001_0 (protein)
chain: SSSSDLEEEVEELLEELKQAKSQEEFAELALRVLRVAIESSDPELLEEVWEVIKRVAERLSSSSS

Biological target: il10ra, Q13651
Experiment: yeast display titration

Apparent Kd, inactive:
B1 no binding seen, B2 no binding seen, B3 no binding seen, B4 no binding seen, B5 no binding seen, B6 no binding seen, B7 no binding seen, B8 no binding seen, B9 no binding seen, B10 no binding seen, B11 no binding seen, B12 no binding seen, B13 no binding seen, B14 no binding seen, B15 no binding seen, B16 no binding seen, B17 no binding seen, B18 no binding seen, B19 no binding seen, B20 no binding seen, B21 no binding seen, B22 no binding seen, B23 no binding seen, B24 no binding seen, B25 no binding seen, B26 no binding seen, B27 > 279 nM, B28 no binding seen, B29 no binding seen, B30 no binding seen, B31 no binding seen, B32 no binding seen, B33 no binding seen, B34 no binding seen, B35 no binding seen, B36 no binding seen, B37 no binding seen
